Laboratory results reported in PMC7819943, “Rice protein-binding microarrays: a tool to detect cis-acting elements near promoter regions in rice”.
This is one part of the list.

The sequences below were run against T1, OsSMF1 (Oryza sativa, UniProt Q6ZLB0 1-436) (assay: protein-binding microarray (RPBM); PBS, 2% BSA, 51.3 ng/ul salmon testes DNA, 50 uM zinc acetate, 200 nM TF, 25 C, 1 h; high values mean tight binding). Settings: protein: recombinant; tags: N-terminal polyhistidine and DsRed monomer fusion (pET32a); chain copies: 2; label: CyDye5-dUTP incorporated in the synthesized complementary strand; 3' TTTTT single-stranded linker to array surface; dsDNA, one strand shown.
T1 sequence: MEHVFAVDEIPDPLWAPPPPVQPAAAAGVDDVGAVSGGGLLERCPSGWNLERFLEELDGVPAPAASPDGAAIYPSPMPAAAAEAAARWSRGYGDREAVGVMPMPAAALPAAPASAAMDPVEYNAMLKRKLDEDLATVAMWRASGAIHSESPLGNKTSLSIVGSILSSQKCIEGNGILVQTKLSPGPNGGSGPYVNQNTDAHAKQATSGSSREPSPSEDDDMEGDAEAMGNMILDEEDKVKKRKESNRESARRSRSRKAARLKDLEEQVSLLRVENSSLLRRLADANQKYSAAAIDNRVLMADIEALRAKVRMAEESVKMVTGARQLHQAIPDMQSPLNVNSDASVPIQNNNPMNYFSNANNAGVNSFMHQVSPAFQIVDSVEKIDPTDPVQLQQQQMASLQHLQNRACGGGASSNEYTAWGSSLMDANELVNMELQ
Summary of the method: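 Using Ni–NTA, transcription factors fused N-terminally to polyhistidine and DsRed were purified after expression in E. coli BL21-CodonPlus. These were incubated at 200 nM with a blocked, double-stranded custom Agilent array for 1 h at 25 °C in a buffer containing 50 µM zinc acetate, and the array was washed. The binding signal is per-feature fluorescence intensity (arbitrary units) on an Axon 4000B scanner.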
“ATAAGACTTGATGACAACAACCATCACAGGGGTGCTTCTGCGGAGTCACCTAGTGCAG” was tested, and the binding signal was 3230 fluorescence intensity (a.u.). In the case of “CGGCTATCGATATATACATAGGTGGTGGATGCGTGCGTGCCGGAGTCACCTAGTGCAG”, the binding signal is reported as 3640 fluorescence intensity (a.u.). In the case of “GTTGCAGAGCAGCTCGCGCCGCGCGCGTACACTCGCTTTGCGGAGTCACCTAGTGCAG”, the binding signal is reported as 6780 fluorescence intensity (a.u.). For “GTTAGGATATCCGGTGTTGGTTCATTATAGTCTGCACTTACGGAGTCACCTAGTGCAG”, the binding signal was 3390 fluorescence intensity (a.u.). For “GCTTGTATATACGTCAGCTGTCTGGGCCTTCCAATGGACGCGGAGTCACCTAGTGCAG”, the binding signal was 5820 fluorescence intensity (a.u.). In the case of “CCTTACCCCTACCTTCCACCGCACTCTCAAACCCATCCGGCGGAGTCACCTAGTGCAG”, the binding signal is reported as 3180 fluorescence intensity (a.u.). For “CTGTCCATTGATCTGTCCCTGGCAGCGACGTGACGTCCCACGGAGTCACCTAGTGCAG”, the binding signal was 4890 fluorescence intensity (a.u.). In the case of “CTTCGTTTTAATCACGTCAACCAGCATTTTGGCTTTTCCACGGAGTCACCTAGTGCAG”, the binding signal is reported as 3430 fluorescence intensity (a.u.). In the case of “TGTAGCCAATTGGTTTCTATAAACAGAAAAGTGGTCGTCCCGGAGTCACCTAGTGCAG”, the binding signal is reported as 20700 fluorescence intensity (a.u.). With “GGTAGAGGCCAGGCCATAGATCGAGATCGATCTGCAGGTGCGGAGTCACCTAGTGCAG” the binding signal was 20500 fluorescence intensity (a.u.). For “ATGGGTTGCACATGACTAGTCCAGTTCTCGCTGTCAGCATCGGAGTCACCTAGTGCAG”, the binding signal was 4480 fluorescence intensity (a.u.). In the case of “GGATCAGGACGCGTGGGAGTCAAAACCTGGTCTCCTCGGTCGGAGTCACCTAGTGCAG”, the binding signal is reported as 3340 fluorescence intensity (a.u.). With “GAAATGCCAAGTGTGAGAAGATGACGCACCCAAATGCAACCGGAGTCACCTAGTGCAG” the binding signal was 5640 fluorescence intensity (a.u.). “CGCGGCGGCGGCGGCGCGAAGGCACGTGGCACGGCGCCGCCGGAGTCACCTAGTGCAG” was tested, and the binding signal was 3420 fluorescence intensity (a.u.). With “CTTCCATCATTATAGATACTCATGTCACGTGGACATCACGCGGAGTCACCTAGTGCAG” the binding signal was 4160 fluorescence intensity (a.u.). “AGAGAGGGAGTGATGACGTGGCATGTTGACATGTGGGGCCCGGAGTCACCTAGTGCAG” was tested, and the binding signal was 19700 fluorescence intensity (a.u.). With “TGCGTGTGGAAAGTAAACTAAGGAACTCAGACTAAGAGGGCGGAGTCACCTAGTGCAG” the binding signal was 3150 fluorescence intensity (a.u.). For “TTTCTTAATACACAGTTGTACTTGATGAAACCTTAGGACGCGGAGTCACCTAGTGCAG”, the binding signal was 6130 fluorescence intensity (a.u.). “CAGCGCCACCGCTCAGCACGTCACCTGATTAGGCTTTCAACGGAGTCACCTAGTGCAG” was tested, and the binding signal was 8100 fluorescence intensity (a.u.). For “CTCCGCCTCATTATAAGTACAATCATAGGTTTTCACGTCACGGAGTCACCTAGTGCAG”, the binding signal was 3210 fluorescence intensity (a.u.). “TTTCTTTTCAGACGATGACGTCACACCGTTCTTCATGTATCGGAGTCACCTAGTGCAG” was tested, and the binding signal was 12300 fluorescence intensity (a.u.). With “CCGTGATTAGAAGTAGTACTAACGTGACGTATATATATCCCGGAGTCACCTAGTGCAG” the binding signal was 5900 fluorescence intensity (a.u.). With “GAGTGGGGAGAGAGTCAAGAGAGGGGCGTGTAGCACACGTCGGAGTCACCTAGTGCAG” the binding signal was 4900 fluorescence intensity (a.u.). For “CTGCCCGACTACCGCGTGCTCAATCGCCGCGGTGGACCACCGGAGTCACCTAGTGCAG”, the binding signal was 3210 fluorescence intensity (a.u.). With “TGAAGTTAGTGGGATATTTAGGCCACGTGTCCTGACAGCACGGAGTCACCTAGTGCAG” the binding signal was 13300 fluorescence intensity (a.u.). In the case of “TGCGCGGCGGCCGTCCGTCGATCATGATGAGGAGCTCCATCGGAGTCACCTAGTGCAG”, the binding signal is reported as 21900 fluorescence intensity (a.u.). For “TAACATTGATTGTTATGTCACTTGTCTGTGGATCAACTCTCGGAGTCACCTAGTGCAG”, the binding signal was 3930 fluorescence intensity (a.u.). For “TTGAGCATAGTAAGTTTTGACCTATAGTGAGGCTGTACAACGGAGTCACCTAGTGCAG”, the binding signal was 3290 fluorescence intensity (a.u.). With “GCCATGGGCTCGTCACGCAAGCAAAATTCCTCATTTCTCACGGAGTCACCTAGTGCAG” the binding signal was 28500 fluorescence intensity (a.u.). “ACACCCACAATGGTTATCTATAAGCTCTCTACAAGAGATCCGGAGTCACCTAGTGCAG” was tested, and the binding signal was 30200 fluorescence intensity (a.u.). In the case of “GGGAACGGTGACCATGTATCTTCTGGCTGGTGATGTGTGACGGAGTCACCTAGTGCAG”, the binding signal is reported as 6030 fluorescence intensity (a.u.). With “AGCTGCTCTTGCTCTTCCTGCTCCGCCGTCACCTCCACCACGGAGTCACCTAGTGCAG” the binding signal was 3350 fluorescence intensity (a.u.). “TTCGCCGGCGCCGTCGTGTCGTTCGCCGTCTGCAAGCACGCGGAGTCACCTAGTGCAG” was tested, and the binding signal was 3400 fluorescence intensity (a.u.). In the case of “ATGCAGGATGGCATCATGAGAACTGTTGGATCATTATCAGCGGAGTCACCTAGTGCAG”, the binding signal is reported as 3370 fluorescence intensity (a.u.). For “TAGACTTAGACATTTCGGCTTATAAGTTGGCTTATAAGCACGGAGTCACCTAGTGCAG”, the binding signal was 33000 fluorescence intensity (a.u.). In the case of “AGAAGAATACGGTACGATGGGCCTAATGGAAGCCCATTGACGGAGTCACCTAGTGCAG”, the binding signal is reported as 4860 fluorescence intensity (a.u.). “AATAATTCCCTTGACTAGCTAGTGCTTGACCTGTCAAAGCCGGAGTCACCTAGTGCAG” was tested, and the binding signal was 3980 fluorescence intensity (a.u.). With “TATAAACAAACCACTCGCCGCGCCGCATCAGTCGTAACCACGGAGTCACCTAGTGCAG” the binding signal was 3840 fluorescence intensity (a.u.). For “GATACGCTTAACAACATATGACGTGGCACCCACCGCTACCCGGAGTCACCTAGTGCAG”, the binding signal was 18100 fluorescence intensity (a.u.). In the case of “ACGAATTTGCAAGACAGTAGACAGGTACGTGTCAAATTGCCGGAGTCACCTAGTGCAG”, the binding signal is reported as 7080 fluorescence intensity (a.u.). “GATGGCAATGGGGCCCCGTTCCCCGTCACCCGGTGGGGAACGGAGTCACCTAGTGCAG” was tested, and the binding signal was 3140 fluorescence intensity (a.u.). For “ATAAGACCGTGTCATTGTCCAAAACGATGACGCGGTTGCACGGAGTCACCTAGTGCAG”, the binding signal was 7750 fluorescence intensity (a.u.).
